The list shows a part of the results.

Amino acid sequences for entries named in this document (tags omitted).
UniProt Q0JBA9, entry or part of it: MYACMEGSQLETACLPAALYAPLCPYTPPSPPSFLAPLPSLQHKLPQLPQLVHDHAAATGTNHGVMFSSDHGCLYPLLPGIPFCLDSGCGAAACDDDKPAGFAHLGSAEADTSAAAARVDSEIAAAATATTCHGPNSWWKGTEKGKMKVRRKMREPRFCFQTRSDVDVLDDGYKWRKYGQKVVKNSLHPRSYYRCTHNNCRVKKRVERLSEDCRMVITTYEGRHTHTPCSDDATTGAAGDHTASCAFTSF

For the assay, the target named is OsWRKY34 (Oryza sativa, UniProt Q0JBA9 1-250). Put plainly: protein-binding microarray (RPBM); PBS, 2% BSA, 51.3 ng/ul salmon testes DNA, 50 uM zinc acetate, 200 nM TF, 25 C, 1 h; high values mean tight binding. Conditions: protein: recombinant; tags: N-terminal polyhistidine and DsRed monomer fusion (pET32a); label: CyDye5-dUTP incorporated in the synthesized complementary strand; 3' TTTTT single-stranded linker to array surface; dsDNA, one strand shown. The procedure, abridged:
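Ni–NTA purification followed expression in E. coli BL21-CodonPlus of transcription factors fused N-terminally to a polyhistidine tag and DsRed. At 200 nM in PBS with 2% BSA, salmon testes DNA and 50 µM zinc acetate, the protein was incubated for 1 h at 25 °C with a custom Agilent array that had been primer-extended with Cy5-dUTP and blocked with 2% BSA. After washing, the array was read on an Axon 4000B scanner. The binding signal is per-feature fluorescence intensity in arbitrary units.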
Turning to “CGGCTCCACCTCGCGCCCTGACCTGACGCGGATAGGTTTTCGGAGTCACCTAGTGCAG”, the binding signal was 9700 fluorescence intensity (a.u.). For the sequence “TGGTGGTGGGTGAGTGTTGGGTGCGCAGGCTCTGGGGTAACGGAGTCACCTAGTGCAG”, the binding signal is 12900 fluorescence intensity (a.u.). As for “CAATCATTCTCATATACTTTCTTAATACCGTGCCAACCTTCGGAGTCACCTAGTGCAG”, the binding signal is 8780 fluorescence intensity (a.u.). As to “TAATTTGGTCCATGCCATGCTGATAAAGCATGTTTCTTCTCGGAGTCACCTAGTGCAG”, the binding signal was 9060 fluorescence intensity (a.u.). As to “CACTACTATTTTGGTACTATCTCATCCTGCAGTGTACACGCGGAGTCACCTAGTGCAG”, the binding signal is 8750 fluorescence intensity (a.u.). For “TTTTTTTGTTGGTTTGTGGTGTTCTGGAGCATTCTTTGAACGGAGTCACCTAGTGCAG” the value was 8290 fluorescence intensity (a.u.); for “AGGCAGAAGATCCGTCCCGTACTCCCGTCGTCCATCATTCCGGAGTCACCTAGTGCAG”, 8950 fluorescence intensity (a.u.). For “GCTGAGTATATGTGTGTGCACACGTCTTCCAACGTGTCATCGGAGTCACCTAGTGCAG” the value was 9000 fluorescence intensity (a.u.). For the sequence “GATTCCCCAACGGTCAACCCCTAAACCCTAGATTTCCATCCGGAGTCACCTAGTGCAG”, the binding signal is 8040 fluorescence intensity (a.u.). Take “CGACGACCACACGAGCGCCGTACCAAATCCTGCCTATATACGGAGTCACCTAGTGCAG”: the binding signal was 8130 fluorescence intensity (a.u.). Turning to “CCCACTGGTTGTCCGCCTGCTTCTCCCCGCCCCAATCCACCGGAGTCACCTAGTGCAG”, the binding signal is 8790 fluorescence intensity (a.u.).

“ATTATTTGTCATCGGCACCTAGCCGATCCGCTGTCATTTACGGAGTCACCTAGTGCAG”: the binding signal was 12700 fluorescence intensity (a.u.).

As to “AGTTTGTGTCGTGAAAGGGAATTCATTATCGTCCTGCCCTCGGAGTCACCTAGTGCAG”, the binding signal is 8150 fluorescence intensity (a.u.).

Consider “ATCAGTGTATGGTGCTCTGTTCAGTTCATCATCAGCATCACGGAGTCACCTAGTGCAG”, for which the binding signal was 8330 fluorescence intensity (a.u.). For “ACCTGCCTTATCTGTTCTATTTTGCCTTTACTTTCTTTTTCGGAGTCACCTAGTGCAG” the value was 13000 fluorescence intensity (a.u.); for “CCTAAAAAGATGGCCTAATTACGAATTGGGAGGGGTAAAACGGAGTCACCTAGTGCAG”, 9120 fluorescence intensity (a.u.); for “ATCCAATTCCAAAGGCCCATAGCTCATATGCCCTGGCTCGCGGAGTCACCTAGTGCAG”, 9890 fluorescence intensity (a.u.). For “CTCGTACTGGCACCCACTCTCTCTCCCTGCCTCTCTGCCACGGAGTCACCTAGTGCAG” the value was 8810 fluorescence intensity (a.u.). Take “AGAACGAACAGTCAAACATATGCTAAAAAGTCAACGGTGTCGGAGTCACCTAGTGCAG”: the binding signal was 10200 fluorescence intensity (a.u.).

Consider “TGATAGTTGGGTTTACTTGAAGATTCGTGTGTGGGAGTTTCGGAGTCACCTAGTGCAG”, for which the binding signal was 9650 fluorescence intensity (a.u.). Regarding “AGTTTGGGTGTTGGGCTCTCATTCTTATCTCGTTATCAATCGGAGTCACCTAGTGCAG”, the binding signal was 15900 fluorescence intensity (a.u.). For “AATTATTTCAGTGTACTTTTGATAAATTTAAGCCTTGTTTCGGAGTCACCTAGTGCAG” the value was 10100 fluorescence intensity (a.u.); for “AACGCCACCTCAATATCTATATTAAGTCTCGTCACCGTCTCGGAGTCACCTAGTGCAG”, 8260 fluorescence intensity (a.u.). For “GGAGGAGGGGAGGAGGGGAGGGAGATCGATCTGAGAGGATCGGAGTCACCTAGTGCAG” the value was 12800 fluorescence intensity (a.u.); for “TTGCCAGTTTGCCACCTCGCGTCATGGATCGCCCTTTTGCCGGAGTCACCTAGTGCAG”, 11300 fluorescence intensity (a.u.); for “TGTTGCTTAACGATTTGCCACTAGGCCCACATGTCATAGACGGAGTCACCTAGTGCAG”, 8660 fluorescence intensity (a.u.). With “GCCCAATCAAACAATCATTCATATGTTTTTCCTGTGTTTTCGGAGTCACCTAGTGCAG”, the binding signal is 10600 fluorescence intensity (a.u.). With “TATTCTTGTCCTTAAGGTTTTGCTGGGTATTCTTTTTTAGCGGAGTCACCTAGTGCAG”, the binding signal was 12800 fluorescence intensity (a.u.). For “ACCTCATCCCTACCGTCCATTCCCCGATCGGACGGCCACCCGGAGTCACCTAGTGCAG”, the binding signal is 10200 fluorescence intensity (a.u.). Turning to “CATCGCCGCCGCCGCCGCCCCATTCTCCGGCCATCCTCCGCGGAGTCACCTAGTGCAG”, the binding signal is 14900 fluorescence intensity (a.u.). “CCTCCGATCCCCATGCCTCCTCCGCCTCCGCCTCCCTCCCCGGAGTCACCTAGTGCAG”: the binding signal was 8210 fluorescence intensity (a.u.). For “ACCTACCGCGTACCGCGTCCCCTTATCTGCTTTGGACGCTCGGAGTCACCTAGTGCAG”, the binding signal was 8960 fluorescence intensity (a.u.). For “TGGATGGGAGAGGACTAGTGGGCTGCACAGAATTTCGGTTCGGAGTCACCTAGTGCAG” the value was 8240 fluorescence intensity (a.u.); for “CTTACCTAGATTCAAATACTCAATACATGCGTATAATTTACGGAGTCACCTAGTGCAG”, 8590 fluorescence intensity (a.u.); for “GTACTAGAGGTGATGCATTGTATAGGTTGACTCTTAGAGCCGGAGTCACCTAGTGCAG”, 8180 fluorescence intensity (a.u.). For the sequence “GACAGATGATCTGCTTCTTCGACTCGATTGCTCACCTAAACGGAGTCACCTAGTGCAG”, the binding signal is 9710 fluorescence intensity (a.u.). On to “ACTGCTAGCCTAAAATCCAATTTCTAATCCTTCGTTTTCCCGGAGTCACCTAGTGCAG”, for which the binding signal was 8390 fluorescence intensity (a.u.).

On to “GGTGGTTGGCGCGCGTTTTCTTGTGTGGTTTTTTGTGTCGCGGAGTCACCTAGTGCAG”, for which the binding signal was 14200 fluorescence intensity (a.u.).

Consider “AACAAGACATTTCTCTCTCTCTGGCAAGTTTGGAATTGGACGGAGTCACCTAGTGCAG”, for which the binding signal was 9270 fluorescence intensity (a.u.). For “AATTTCCACTTTGCCAAACAAGACCTTTTAAGTGGGCCCGCGGAGTCACCTAGTGCAG” the value was 9110 fluorescence intensity (a.u.); for “CGACCTCACCCACCGTTTCTCGATCGTTTCTCTCCCTCCTCGGAGTCACCTAGTGCAG”, 10300 fluorescence intensity (a.u.). As to “TTTTCTTTGGCTCTTCAGAGTTTTGTCCATCTCTATCTTCCGGAGTCACCTAGTGCAG”, the binding signal is 12600 fluorescence intensity (a.u.).

The record behind these values is publication PMC7819943, “Rice protein-binding microarrays: a tool to detect cis-acting elements near promoter regions in rice”.
